# The list shows a part of the results.
# Columns and labels:
# Test in all cases: glycan array binding signal (z-score within array); higher = stronger binding
# Conditions in all cases: glycan notation: IUPAC condensed, linker removed
# Fuc(a1-2)Gal = molecular target: Fuc(a1-2)Gal
# Outline: (§1)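 Negative Z-scores can be read as non-binding. The Z-score is calculated within each array and then averaged across arrays of one protein sequence at different concentrations or buffers and across linkers. Arrays, 3228 in all, were curated from the Consortium for Functional Glycomics database and kept only where the protein sequence was available.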
# Fuc(a1-2)Gal(b1-3)GalNAc = molecular target: Fuc(a1-2)Gal(b1-3)GalNAc
# Outline: as §1
# [1] = molecular target: Fuc(a1-2)Gal(b1-3)GalNAc(a1-3)[Fuc(a1-2)]Gal(b1-4)Glc
# Outline: as §1
# [2] = molecular target: Fuc(a1-2)Gal(b1-3)GalNAc(a1-3)[Fuc(a1-2)]Gal(b1-4)GlcNAc
# Outline: as §1
# [3] = molecular target: Fuc(a1-2)Gal(b1-3)GalNAc(b1-3)Gal
# Outline: as §1
# [4] = molecular target: Fuc(a1-2)Gal(b1-3)GalNAc(b1-3)Gal(a1-4)Gal(b1-4)Glc
# Outline: as §1
# [5] = molecular target: Fuc(a1-2)Gal(b1-3)GalNAc(b1-4)[Neu5Ac(a2-3)]Gal(b1-4)Glc
# Outline: as §1
# Fuc(a1-2)Gal(b1-3)GlcNAc = molecular target: Fuc(a1-2)Gal(b1-3)GlcNAc
# Outline: as §1
# [6] = molecular target: Fuc(a1-2)Gal(b1-3)GlcNAc(b1-2)Man(a1-3)[Fuc(a1-2)Gal(b1-3)GlcNAc(b1-2)Man(a1-6)]Man(b1-4)GlcNAc(b1-4)GlcNAc
# Outline: as §1
# [7] = molecular target: Fuc(a1-2)Gal(b1-3)GlcNAc(b1-2)Man(a1-3)[Fuc(a1-2)Gal(b1-3)GlcNAc(b1-2)Man(a1-6)]Man(b1-4)GlcNAc(b1-4)[Fuc(a1-6)]GlcNAc
# Outline: as §1
# [8] = molecular target: Fuc(a1-2)Gal(b1-3)GlcNAc(b1-3)Gal(b1-4)Glc
# Outline: as §1
# [9] = molecular target: Fuc(a1-2)Gal(b1-3)GlcNAc(b1-3)GalNAc
# Outline: as §1
# [10] = molecular target: Fuc(a1-2)Gal(b1-3)GlcNAc(b1-3)[Fuc(a1-2)Gal(b1-3)GlcNAc(b1-6)]GalNAc
# Outline: as §1
# [11] = molecular target: Fuc(a1-2)Gal(b1-3)GlcNAc(b1-3)[Gal(b1-4)GlcNAc(b1-6)]Gal(b1-4)Glc
# Outline: as §1
# [12] = molecular target: Fuc(a1-2)Gal(b1-3)GlcNAc(b1-3)[Neu5Ac(a2-6)Gal(b1-4)GlcNAc(b1-6)]Gal(b1-4)Glc
# Outline: as §1
# [13] = molecular target: Fuc(a1-2)Gal(b1-3)GlcNAc6S
# Outline: as §1
# [14] = molecular target: Fuc(a1-2)Gal(b1-3)[Fuc(a1-4)]GlcNAc
# Outline: as §1
# [15] = molecular target: Fuc(a1-2)Gal(b1-3)[Fuc(a1-4)]GlcNAc(b1-2)Man(a1-3)[Fuc(a1-2)Gal(b1-3)[Fuc(a1-4)]GlcNAc(b1-2)Man(a1-3)]Man(b1-4)GlcNAc(b1-4)GlcNAc
# Outline: as §1
# [16] = molecular target: Fuc(a1-2)Gal(b1-3)[Fuc(a1-4)]GlcNAc(b1-2)Man(a1-3)[Fuc(a1-2)Gal(b1-3)[Fuc(a1-4)]GlcNAc(b1-2)Man(a1-6)]Man(b1-4)GlcNAc(b1-4)[Fuc(a1-6)]GlcNAc(b1-4)[Fuc(a1-6)]GlcNAc
# Outline: as §1
# [17] = molecular target: Fuc(a1-2)Gal(b1-3)[Fuc(a1-4)]GlcNAc(b1-3)[Fuc(a1-3)[Gal(b1-4)]GlcNAc(b1-6)]Gal(b1-4)Glc
# Outline: as §1
# [18] = molecular target: Fuc(a1-2)Gal(b1-3)[Fuc(a1-4)]GlcNAc(b1-3)[Gal(b1-4)GlcNAc(b1-6)]Gal(b1-4)Glc
# Outline: as §1
# Fuc(a1-2)Gal(b1-4)Glc = molecular target: Fuc(a1-2)Gal(b1-4)Glc
# Outline: as §1
# Fuc(a1-2)Gal(b1-4)Glc6S = molecular target: Fuc(a1-2)Gal(b1-4)Glc6S
# Outline: as §1
# Fuc(a1-2)Gal(b1-4)GlcNAc = molecular target: Fuc(a1-2)Gal(b1-4)GlcNAc
# Outline: as §1
# [19] = molecular target: Fuc(a1-2)Gal(b1-4)GlcNAc(b1-2)Man
# Outline: as §1
# [20] = molecular target: Fuc(a1-2)Gal(b1-4)GlcNAc(b1-2)Man(a1-3)[Fuc(a1-2)Gal(b1-4)GlcNAc(b1-2)Man(a1-6)]Man(b1-4)GlcNAc(b1-4)GlcNAc
# Outline: as §1
# [21] = molecular target: Fuc(a1-2)Gal(b1-4)GlcNAc(b1-2)Man(a1-3)[Fuc(a1-2)Gal(b1-4)GlcNAc(b1-2)Man(a1-6)]Man(b1-4)GlcNAc(b1-4)[Fuc(a1-6)]GlcNAc
# Outline: as §1
# [22] = molecular target: Fuc(a1-2)Gal(b1-4)GlcNAc(b1-2)[Fuc(a1-2)Gal(b1-4)GlcNAc(b1-4)]Man(a1-3)[Fuc(a1-2)Gal(b1-4)GlcNAc(b1-2)Man(a1-6)]Man(b1-4)GlcNAc(b1-4)GlcNAc
# Outline: as §1
# [23] = molecular target: Fuc(a1-2)Gal(b1-4)GlcNAc(b1-3)Gal(b1-4)GlcNAc
# Outline: as §1
# [24] = molecular target: Fuc(a1-2)Gal(b1-4)GlcNAc(b1-3)Gal(b1-4)GlcNAc(b1-2)Man(a1-3)[Fuc(a1-2)Gal(b1-4)GlcNAc(b1-3)Gal(b1-4)GlcNAc(b1-2)Man(a1-6)]Man(b1-4)GlcNAc(b1-4)GlcNAc
# Outline: as §1
binder,measurement,setting,value
"YghJ (Escherichia coli), E3PJ90 (protein) MNKKFKYKKSLLAAILSATLLAGCDGGGSGSSSDTPPVDSGTGSLPEVKPDPTPNPEPTPEPTPDPEPTPEPIPDPEPTPEPEPEPVPTKTGYLTLGGSQRVTGATCNGESSDGFTFKPGEDVTCVAGNTTIATFNTQSEAARSLRAVEKVSFSLEDAQELAGSDDKKSNAVSLVTSSNSCPANTEQVCLTFSSVIESKRFDSLYKQIDLAPEEFKKLVNEEVENNAATDKAPSTHTSPVVPVTTPGTKPDLNASFVSANAEQFYQYQPTEIILSEGRLVDSQGYGVAGVNYYTNSGRGVTGENGEFSFSWGEAISFGIDTFELGSVRGNKSTIALTELGDEVRGANIDQLIHRYSTTGQNNTRVVPDDVRKVFAEYPNVINEIINLSLSNGATLGEGEQVVNLPNEFIEQFNTGQAKEIDTAICAKTDGCNEARWFSLTTRNVNDGQIQGVINKLWGVDTNYKSVSKFHVFHDSTNFYGSTGNARGQAVVNISNAAFPILMARNDKNYWLAFGEKRAWDKNELAYITEAPSIVRPENVTRETASFNLPFISLGQVGDGKLMVIGNPHYNSILRCPNGYSWNGGVNKDGQCTLNSDPDDMKNFMENVLRYLSNDRWLPDAKSSMTVGTNLETVYFKKHGQVLGNSAPFAFHKDFTGITVKPMTSYGNLNPDEVPLLILNGFEYVTQWGSDPYSIPLRADTSKPKLTQQDVTDLIAYMNKGGSVLIMENVMSNLKEESASGFVRLLDAAGLSMALNKSVVNNDPQGYPDRVRQRRSTPIWVYERYPAVDGKPPYTIDDTTKEVIWKYQQENKPDDKPKLEVASWQEEVEGKQVTQFAFIDEADHKTPESLAAAKQRILDAFPGLEVCKDSDYHYEVNCLEYRPGTDVPVTGGMYVPQYTQLDLSADTAKAMLQAADLGTNIQRLYQHELYFRTNGRQGERLNSVDLERLYQNMSVWLWNETKYRYEEGKEDELGFKTFTEFLNCYTNNAYVGTQCSAELKKSLIDNKMIYGEESSKAGMMNPSYPLNYMEKPLTRLMLGRSWWDLNIKVDVEKYPGVVNTNGETVTQNINLYSAPTKWFAGNMQSTGLWAPAQQEVSIESKSTVPVTVTVALADDLTGREKHEVSLNRPPRVTKTYDLKANDKVTFKVPYGGLIYIKGDSKEVQSADFTFTGVVKAPFYKDGKWQHDLNSPAPLGELESASFVYTTPKKNLNASNYTGGLEQFANDLDTFASSMNDFYGRDSEDGKHRMFTYKNLPGHKHRFANDVQISIGDAHSGYPVMNSSFSPNSTTLPTTPLNDWLIWHEVGHNAAETPLTVPGATEVANNVLALYMQDRYLGKMNRVADDITVAPEYLEESNGQAWARGGAGDRLLMYAQLKEWAEKNFDIKKWYPDGTPLPEFYSEREGMKGWNLFQLMHRKARGDEVSNDKFGGKNYCAESNGNAADTLMLCASWVAQTDLSEFFKKWNPGANAYQLPGASEMSFEGGVSQSAYNTLASLDLPKPEQGPETINQVTEHKMSAE",glycan array binding signal (z-score),Fuc(a1-2)Gal,-0.206
same,glycan array binding signal (z-score),Fuc(a1-2)Gal(b1-3)GalNAc,0.006
same,glycan array binding signal (z-score),[1],-1.48
same,glycan array binding signal (z-score),[2],-1.47
same,glycan array binding signal (z-score),[3],-0.787
same,glycan array binding signal (z-score),[4],-0.141
same,glycan array binding signal (z-score),[5],-0.92
same,glycan array binding signal (z-score),Fuc(a1-2)Gal(b1-3)GlcNAc,0.05
same,glycan array binding signal (z-score),[6],-0.872
same,glycan array binding signal (z-score),[7],-0.092
same,glycan array binding signal (z-score),[8],-0.678
same,glycan array binding signal (z-score),[9],-0.429
same,glycan array binding signal (z-score),[10],1.43
same,glycan array binding signal (z-score),[11],1.78
same,glycan array binding signal (z-score),[12],0.101
same,glycan array binding signal (z-score),[13],2.47
same,glycan array binding signal (z-score),[14],0.02
same,glycan array binding signal (z-score),[15],1.41
same,glycan array binding signal (z-score),[16],1.56
same,glycan array binding signal (z-score),[17],0.131
same,glycan array binding signal (z-score),[18],-0.627
same,glycan array binding signal (z-score),Fuc(a1-2)Gal(b1-4)Glc,0.764
same,glycan array binding signal (z-score),Fuc(a1-2)Gal(b1-4)Glc6S,0.048
same,glycan array binding signal (z-score),Fuc(a1-2)Gal(b1-4)GlcNAc,-0.065
same,glycan array binding signal (z-score),[19],1.68
same,glycan array binding signal (z-score),[20],-0.25
same,glycan array binding signal (z-score),[21],-0.129
same,glycan array binding signal (z-score),[22],0.767
same,glycan array binding signal (z-score),[23],0.111
same,glycan array binding signal (z-score),[24],0.821

# Source: the supplement of paper PMC8728848
